Test results as given in patent US6344546.
Results are given in words; binding and its absence hold for the method and conditions named. Some binding calls cover weakened binding; strength is not graded here.

By UniProt entry, the sequences of proteins in these tests, tags left out. Residues count along the entry.
UniProt P21802, residues 22-821: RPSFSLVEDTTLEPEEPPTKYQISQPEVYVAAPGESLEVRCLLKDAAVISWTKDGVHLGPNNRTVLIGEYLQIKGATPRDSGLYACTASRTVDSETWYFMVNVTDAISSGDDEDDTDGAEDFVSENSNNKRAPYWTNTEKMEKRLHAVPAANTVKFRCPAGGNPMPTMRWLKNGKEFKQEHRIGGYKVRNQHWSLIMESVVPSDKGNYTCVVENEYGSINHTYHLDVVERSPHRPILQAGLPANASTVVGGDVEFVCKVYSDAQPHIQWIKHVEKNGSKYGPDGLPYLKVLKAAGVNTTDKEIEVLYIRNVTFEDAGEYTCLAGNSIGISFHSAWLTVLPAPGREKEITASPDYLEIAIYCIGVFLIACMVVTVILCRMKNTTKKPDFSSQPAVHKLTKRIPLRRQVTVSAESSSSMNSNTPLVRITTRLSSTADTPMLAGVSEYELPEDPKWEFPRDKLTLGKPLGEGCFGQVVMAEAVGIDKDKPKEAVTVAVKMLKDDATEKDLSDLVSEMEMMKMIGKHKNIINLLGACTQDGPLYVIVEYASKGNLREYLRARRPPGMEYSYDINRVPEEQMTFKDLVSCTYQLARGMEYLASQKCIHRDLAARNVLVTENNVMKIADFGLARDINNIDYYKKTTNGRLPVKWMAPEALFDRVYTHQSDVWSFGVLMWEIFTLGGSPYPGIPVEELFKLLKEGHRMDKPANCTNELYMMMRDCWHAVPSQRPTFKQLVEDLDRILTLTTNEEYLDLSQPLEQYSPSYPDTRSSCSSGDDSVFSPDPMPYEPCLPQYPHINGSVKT
UniProt P11362, residues 22-822: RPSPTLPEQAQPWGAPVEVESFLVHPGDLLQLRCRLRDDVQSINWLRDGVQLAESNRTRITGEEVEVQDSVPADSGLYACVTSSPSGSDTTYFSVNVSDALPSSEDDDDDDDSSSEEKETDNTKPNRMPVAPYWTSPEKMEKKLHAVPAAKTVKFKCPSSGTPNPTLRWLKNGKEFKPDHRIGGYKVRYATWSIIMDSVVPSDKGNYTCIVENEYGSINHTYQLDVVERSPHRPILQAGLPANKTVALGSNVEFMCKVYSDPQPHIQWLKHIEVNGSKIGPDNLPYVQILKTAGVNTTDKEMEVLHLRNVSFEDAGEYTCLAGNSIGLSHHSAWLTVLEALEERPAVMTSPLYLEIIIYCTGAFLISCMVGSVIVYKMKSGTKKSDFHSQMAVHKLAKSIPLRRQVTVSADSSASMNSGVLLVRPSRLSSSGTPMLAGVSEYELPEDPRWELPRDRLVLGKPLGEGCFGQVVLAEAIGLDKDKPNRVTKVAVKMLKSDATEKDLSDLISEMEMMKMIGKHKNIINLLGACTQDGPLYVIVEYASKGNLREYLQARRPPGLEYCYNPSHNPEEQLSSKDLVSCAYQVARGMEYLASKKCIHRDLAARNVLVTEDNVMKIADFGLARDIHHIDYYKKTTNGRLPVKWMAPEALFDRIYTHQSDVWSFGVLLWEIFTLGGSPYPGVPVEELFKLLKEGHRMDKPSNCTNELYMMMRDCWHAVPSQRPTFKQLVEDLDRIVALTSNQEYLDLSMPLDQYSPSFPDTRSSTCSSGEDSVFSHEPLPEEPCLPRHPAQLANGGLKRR

Legend:
[1] = molecular target: human bek (bacterially expressed kinase) fibroblast growth factor receptor (human) (UniProt P21802); test: Scatchard analysis of [125I]kFGF saturation binding to bek13 cells
[2] = molecular target: human bek (bacterially expressed kinase) fibroblast growth factor receptor (human) (UniProt P21802); test: covalent crosslinking of [125I]kFGF to intact NBek13 cells with disuccinimidyl suberate, SDS-PAGE
[3] = molecular target: human flg (fms-like gene) fibroblast growth factor receptor (human) (UniProt P11362); test: covalent crosslinking of [125I]kFGF to intact NFlg26 cells with disuccinimidyl suberate, SDS-PAGE

Measured: binding

B1: human recombinant kFGF (ligand, UniProt P08620 31-206, looked up)
chain: APTAPNGTLEAELERRWESLVALSLARLPVAAQPKEAAVQSGAGDYLLGIKRLRRLYCNVGIGFHLQALPDGRIGGAHADTRDSLLELSPVERGVVSIFGVASRFFVAMSSKGKLYGSPFFTDECTFKEILLPNNYNAYESYKYPGMFIALSKNGKTKKGNRVSPTMKVTHFLPRL
modifications: radioiodinated (125I) by Enzymobeads
binds: all assays above
